For at least one entry, the source does not settle the construct or the ends of the probe. For some assays here: Negatives hold for the conditions tested. For some assays here: At least one verdict rests on a figure or table, not on a statement of the authors.

Chains of the proteins cited; added tags and fusions are not shown. Lines headed by an entry give the natural chain unless they say otherwise; changes in a name come on top.
UniProt Q8W4L5: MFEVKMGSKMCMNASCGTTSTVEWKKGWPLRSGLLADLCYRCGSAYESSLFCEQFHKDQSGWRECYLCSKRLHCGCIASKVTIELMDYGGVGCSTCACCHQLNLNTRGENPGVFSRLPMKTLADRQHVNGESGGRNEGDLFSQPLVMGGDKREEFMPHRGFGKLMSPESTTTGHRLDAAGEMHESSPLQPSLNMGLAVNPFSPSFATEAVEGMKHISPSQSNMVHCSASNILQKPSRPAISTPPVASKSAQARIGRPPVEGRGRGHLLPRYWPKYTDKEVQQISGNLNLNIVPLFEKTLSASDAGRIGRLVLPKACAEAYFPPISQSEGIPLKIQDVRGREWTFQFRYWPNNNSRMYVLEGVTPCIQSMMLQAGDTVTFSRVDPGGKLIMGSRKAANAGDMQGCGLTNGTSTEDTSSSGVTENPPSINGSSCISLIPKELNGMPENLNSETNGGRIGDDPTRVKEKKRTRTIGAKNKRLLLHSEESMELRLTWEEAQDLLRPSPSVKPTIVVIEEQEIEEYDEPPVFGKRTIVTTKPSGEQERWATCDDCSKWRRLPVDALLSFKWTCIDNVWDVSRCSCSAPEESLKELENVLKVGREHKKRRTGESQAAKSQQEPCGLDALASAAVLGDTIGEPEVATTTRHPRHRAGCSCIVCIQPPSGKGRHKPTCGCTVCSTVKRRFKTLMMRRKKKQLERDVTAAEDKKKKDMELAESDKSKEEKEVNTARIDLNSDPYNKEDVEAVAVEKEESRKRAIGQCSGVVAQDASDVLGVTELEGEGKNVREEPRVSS

The target in data set [1] is GST-VAL1B3 (Arabidopsis thaliana) (UniProt Q8W4L5). The data set can be described thus: competition with a labelled probe. Conditions: 10 mM Tris pH 7.5, 50 mM KCl, 1 mM DTT, 2.5% glycerol, 5 mM MgCl2, 0.025% NP-40, 20 uL, 2 uL of 1 uM probe, 25 min room temperature, 1.6% agarose gel in 0.5x TBE, recombinant protein, protein details: GST.
Data set [2] shares this target. The data set can be described thus: EMSA. The settings on record: 10 mM Tris pH 7.5, 50 mM KCl, 1 mM DTT, 2.5% glycerol, 5 mM MgCl2, 0.025% NP-40, 20 uL; 2 uL of 1 uM probe; 25 min room temperature; 1.6% agarose gel in 0.5x TBE; recombinant protein; protein details: GST; label: TYE665 on sense strand (5').
The next data set relates to GST (free tag control). The data set can be described thus: EMSA. Conditions: 10 mM Tris pH 7.5, 50 mM KCl, 1 mM DTT, 2.5% glycerol, 5 mM MgCl2, 0.025% NP-40, 20 uL; 2 uL of 1 uM probe; 25 min room temperature; 1.6% agarose gel in 0.5x TBE; recombinant protein; protein details: GST; label: TYE665 on sense strand (5'). For orientation: Mobility shift assays separate free from complexed probe on a gel.

For “TCAATTTTGTTTTCTTGTGATGTGCATGGAGTAAGAAGAGTGAAAGCAGA (double strand) [BOP2-B3-2 unlabeled competitor]”, the binding result in data set [1] (25x and 50x molar excess against labeled BOP2 probe) is “binds”. As to “TCAATTTTGTTTTCTTGTGATGTGCATGGAGTAAGAAGAGTGAAAGCAGA (double strand) [BOP2-TYE665-dsDNA (BOP2-B3-2)]”, the binding result in data set [2] is given as “binds”.

As to “TTAATCATTCATTCTGCGATTTTGCATGATATTAGTAATCGCATATTTGT (double strand) [BOP1-B3-2 unlabeled competitor]”, the binding result in data set [1] (25x and 50x molar excess against labeled BOP1 probe) is on record as “binds”. For “TTAATCATTCATTCTGCGATTTTGCATGATATTAGTAATCGCATATTTGT (double strand) [BOP1-TYE665-dsDNA (BOP1-B3-2)]”, the binding result in the data set on GST (free tag control) is “no binding”; in data set [2], “binds”.
